Literature values in US20130149723A1, “Method of controlling insect pests in cotton” (priority 2005, published 2013).
At least one compound was matched to its structure with a doubt left.

System: a variety of cancer cell lines
Conditions: general statement, no data

Cc1cc2c(C(C)C)c(O)c(O)c(C=O)c2c(O)c1-c1c(C)cc2c(C(C)C)c(O)c(O)c(C=O)c2c1O [Gossypol, gossypol]
suppression activity on cancer cell lines: suppression activity
